Data taken from the supplement of paper PMC12819154, “High-throughput peptide-centric local stability assay extends protein–ligand identification to membrane proteins, tissues and bacteria” (Nature Structural & Molecular Biology, 2025).
This is one part of the list. Most values lie at the level of the controls, where differences are scatter.

Protein sequences, listed by entry. Tags and fused reporters are not part of them. Lines headed by an entry give the natural chain unless they say otherwise; changes in a name come on top.
UniProt Q3U3C9: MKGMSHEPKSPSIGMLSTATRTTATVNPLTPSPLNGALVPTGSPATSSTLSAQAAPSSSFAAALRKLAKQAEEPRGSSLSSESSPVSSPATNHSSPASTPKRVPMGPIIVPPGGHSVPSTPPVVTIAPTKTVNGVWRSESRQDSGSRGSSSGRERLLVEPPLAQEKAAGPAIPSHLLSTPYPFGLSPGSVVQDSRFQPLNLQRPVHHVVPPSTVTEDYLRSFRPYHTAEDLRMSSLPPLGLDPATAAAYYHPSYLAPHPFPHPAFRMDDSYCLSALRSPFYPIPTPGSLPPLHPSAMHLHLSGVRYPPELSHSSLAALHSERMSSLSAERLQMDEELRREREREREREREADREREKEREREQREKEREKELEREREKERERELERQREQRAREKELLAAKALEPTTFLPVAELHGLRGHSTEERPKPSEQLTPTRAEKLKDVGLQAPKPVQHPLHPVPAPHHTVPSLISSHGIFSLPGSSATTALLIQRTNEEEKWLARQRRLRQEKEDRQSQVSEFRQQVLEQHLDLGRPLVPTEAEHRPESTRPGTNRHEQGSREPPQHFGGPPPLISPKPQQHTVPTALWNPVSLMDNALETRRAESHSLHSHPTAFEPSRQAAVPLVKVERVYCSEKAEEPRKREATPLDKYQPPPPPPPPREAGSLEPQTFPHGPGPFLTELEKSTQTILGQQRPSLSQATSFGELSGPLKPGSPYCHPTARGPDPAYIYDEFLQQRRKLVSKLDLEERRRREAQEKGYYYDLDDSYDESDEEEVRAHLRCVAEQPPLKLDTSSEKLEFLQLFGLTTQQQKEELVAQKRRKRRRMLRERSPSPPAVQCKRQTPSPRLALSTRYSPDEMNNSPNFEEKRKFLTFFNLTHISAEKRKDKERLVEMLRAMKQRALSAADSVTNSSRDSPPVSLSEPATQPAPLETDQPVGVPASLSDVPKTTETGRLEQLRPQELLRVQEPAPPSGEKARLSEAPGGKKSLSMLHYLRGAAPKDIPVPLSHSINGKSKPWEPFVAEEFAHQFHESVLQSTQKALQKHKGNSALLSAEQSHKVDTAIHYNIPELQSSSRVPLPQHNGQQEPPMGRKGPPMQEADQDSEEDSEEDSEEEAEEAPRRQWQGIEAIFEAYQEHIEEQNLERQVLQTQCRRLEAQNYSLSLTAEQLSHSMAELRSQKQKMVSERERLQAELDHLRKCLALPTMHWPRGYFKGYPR
UniProt Q3TEI4: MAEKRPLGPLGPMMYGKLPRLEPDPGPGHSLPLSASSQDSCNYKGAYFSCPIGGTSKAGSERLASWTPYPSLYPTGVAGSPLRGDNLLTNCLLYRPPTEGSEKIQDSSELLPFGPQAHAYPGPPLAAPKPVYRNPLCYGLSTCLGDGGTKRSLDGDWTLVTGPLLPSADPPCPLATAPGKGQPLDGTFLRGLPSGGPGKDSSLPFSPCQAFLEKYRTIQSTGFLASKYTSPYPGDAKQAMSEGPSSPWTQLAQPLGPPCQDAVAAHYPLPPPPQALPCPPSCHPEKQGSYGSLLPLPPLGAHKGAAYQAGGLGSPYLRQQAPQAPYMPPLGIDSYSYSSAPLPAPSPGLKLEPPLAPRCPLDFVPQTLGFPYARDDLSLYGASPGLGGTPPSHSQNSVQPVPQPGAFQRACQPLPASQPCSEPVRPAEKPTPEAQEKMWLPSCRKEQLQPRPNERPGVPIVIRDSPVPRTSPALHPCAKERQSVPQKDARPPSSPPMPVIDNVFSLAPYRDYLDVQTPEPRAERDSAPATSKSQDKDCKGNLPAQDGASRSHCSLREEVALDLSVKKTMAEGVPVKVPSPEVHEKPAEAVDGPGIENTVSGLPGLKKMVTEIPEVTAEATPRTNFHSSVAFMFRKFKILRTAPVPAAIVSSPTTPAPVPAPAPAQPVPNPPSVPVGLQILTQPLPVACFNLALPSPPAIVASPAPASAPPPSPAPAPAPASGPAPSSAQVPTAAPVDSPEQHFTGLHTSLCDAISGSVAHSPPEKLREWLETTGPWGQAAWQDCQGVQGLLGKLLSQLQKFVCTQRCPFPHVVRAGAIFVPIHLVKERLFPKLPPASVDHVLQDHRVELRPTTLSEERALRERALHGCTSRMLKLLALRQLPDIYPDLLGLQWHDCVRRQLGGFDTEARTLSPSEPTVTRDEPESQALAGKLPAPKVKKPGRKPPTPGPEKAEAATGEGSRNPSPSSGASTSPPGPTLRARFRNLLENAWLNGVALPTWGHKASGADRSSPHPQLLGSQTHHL
UniProt Q3TGW2: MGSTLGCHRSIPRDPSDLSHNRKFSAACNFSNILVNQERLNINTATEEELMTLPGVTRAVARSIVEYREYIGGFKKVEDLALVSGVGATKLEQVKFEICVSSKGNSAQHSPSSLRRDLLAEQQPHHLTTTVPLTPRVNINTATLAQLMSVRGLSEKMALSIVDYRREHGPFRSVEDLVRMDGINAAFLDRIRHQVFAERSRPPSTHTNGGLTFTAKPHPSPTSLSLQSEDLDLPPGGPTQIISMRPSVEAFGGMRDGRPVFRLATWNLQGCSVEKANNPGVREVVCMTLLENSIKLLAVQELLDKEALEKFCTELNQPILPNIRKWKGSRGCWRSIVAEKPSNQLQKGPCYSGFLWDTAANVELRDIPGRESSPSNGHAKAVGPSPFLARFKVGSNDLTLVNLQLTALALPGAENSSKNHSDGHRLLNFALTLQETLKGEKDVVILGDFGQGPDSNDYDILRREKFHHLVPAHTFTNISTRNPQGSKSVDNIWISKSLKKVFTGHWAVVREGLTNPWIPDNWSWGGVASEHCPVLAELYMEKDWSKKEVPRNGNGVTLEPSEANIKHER
UniProt Q1W617: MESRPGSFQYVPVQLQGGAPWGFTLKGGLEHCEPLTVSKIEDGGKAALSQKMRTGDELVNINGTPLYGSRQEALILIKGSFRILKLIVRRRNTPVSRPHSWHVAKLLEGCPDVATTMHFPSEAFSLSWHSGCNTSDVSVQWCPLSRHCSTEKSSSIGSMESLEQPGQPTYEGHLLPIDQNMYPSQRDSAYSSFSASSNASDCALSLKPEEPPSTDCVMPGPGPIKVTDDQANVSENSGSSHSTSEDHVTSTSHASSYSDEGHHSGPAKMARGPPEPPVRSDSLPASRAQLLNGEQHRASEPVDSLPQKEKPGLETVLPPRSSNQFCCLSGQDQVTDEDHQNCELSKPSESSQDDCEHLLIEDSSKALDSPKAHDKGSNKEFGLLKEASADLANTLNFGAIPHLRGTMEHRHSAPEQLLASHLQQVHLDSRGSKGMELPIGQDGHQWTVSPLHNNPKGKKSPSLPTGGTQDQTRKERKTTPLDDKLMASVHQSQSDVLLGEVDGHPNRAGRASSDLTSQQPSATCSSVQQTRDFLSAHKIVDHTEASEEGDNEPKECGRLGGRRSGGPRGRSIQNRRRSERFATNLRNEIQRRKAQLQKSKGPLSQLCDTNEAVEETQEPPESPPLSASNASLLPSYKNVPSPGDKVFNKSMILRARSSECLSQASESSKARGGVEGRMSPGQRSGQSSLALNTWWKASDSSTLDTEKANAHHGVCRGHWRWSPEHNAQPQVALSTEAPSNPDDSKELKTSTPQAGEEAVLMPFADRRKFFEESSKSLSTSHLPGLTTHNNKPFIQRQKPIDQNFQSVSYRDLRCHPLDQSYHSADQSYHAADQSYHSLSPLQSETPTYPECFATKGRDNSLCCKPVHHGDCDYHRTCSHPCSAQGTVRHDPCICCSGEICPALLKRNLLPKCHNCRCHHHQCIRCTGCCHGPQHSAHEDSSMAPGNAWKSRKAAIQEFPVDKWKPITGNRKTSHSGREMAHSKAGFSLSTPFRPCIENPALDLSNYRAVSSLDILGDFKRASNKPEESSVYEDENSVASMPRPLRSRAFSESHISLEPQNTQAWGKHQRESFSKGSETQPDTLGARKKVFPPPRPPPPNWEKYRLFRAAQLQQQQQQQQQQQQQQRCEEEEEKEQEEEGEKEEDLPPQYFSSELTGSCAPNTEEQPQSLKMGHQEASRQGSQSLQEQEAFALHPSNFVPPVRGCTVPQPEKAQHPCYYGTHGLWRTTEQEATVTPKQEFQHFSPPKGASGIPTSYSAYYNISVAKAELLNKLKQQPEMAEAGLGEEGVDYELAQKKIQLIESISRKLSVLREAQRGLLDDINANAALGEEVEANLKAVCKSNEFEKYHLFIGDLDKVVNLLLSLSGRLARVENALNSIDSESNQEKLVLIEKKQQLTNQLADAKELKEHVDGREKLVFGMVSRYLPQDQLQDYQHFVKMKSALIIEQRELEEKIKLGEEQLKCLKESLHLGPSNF
UniProt Q05186: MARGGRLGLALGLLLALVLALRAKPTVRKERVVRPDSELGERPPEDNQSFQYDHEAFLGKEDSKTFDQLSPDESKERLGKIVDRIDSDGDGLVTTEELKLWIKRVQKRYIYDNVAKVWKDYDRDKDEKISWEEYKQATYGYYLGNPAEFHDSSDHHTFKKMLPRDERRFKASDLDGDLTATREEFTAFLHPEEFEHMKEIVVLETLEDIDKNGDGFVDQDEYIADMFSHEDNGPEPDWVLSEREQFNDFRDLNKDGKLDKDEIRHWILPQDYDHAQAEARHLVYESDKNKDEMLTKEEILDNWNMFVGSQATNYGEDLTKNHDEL
UniProt Q0VEJ0: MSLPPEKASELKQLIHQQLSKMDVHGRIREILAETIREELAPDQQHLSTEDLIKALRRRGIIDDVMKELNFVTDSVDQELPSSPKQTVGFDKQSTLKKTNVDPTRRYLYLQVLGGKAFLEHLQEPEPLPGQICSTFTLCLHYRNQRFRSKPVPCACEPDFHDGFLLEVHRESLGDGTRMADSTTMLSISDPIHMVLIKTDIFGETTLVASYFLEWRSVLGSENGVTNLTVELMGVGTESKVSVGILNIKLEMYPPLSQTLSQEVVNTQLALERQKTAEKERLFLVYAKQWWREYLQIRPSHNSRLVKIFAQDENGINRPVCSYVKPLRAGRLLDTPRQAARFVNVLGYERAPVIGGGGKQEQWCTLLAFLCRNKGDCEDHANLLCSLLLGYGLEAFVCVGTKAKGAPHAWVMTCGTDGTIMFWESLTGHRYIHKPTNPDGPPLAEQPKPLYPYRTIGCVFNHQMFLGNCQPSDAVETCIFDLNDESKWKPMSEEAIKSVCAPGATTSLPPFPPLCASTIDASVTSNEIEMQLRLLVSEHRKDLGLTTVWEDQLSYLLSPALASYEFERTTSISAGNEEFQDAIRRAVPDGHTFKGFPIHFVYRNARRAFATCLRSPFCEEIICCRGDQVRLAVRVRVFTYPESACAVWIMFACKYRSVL
UniProt Q05A36: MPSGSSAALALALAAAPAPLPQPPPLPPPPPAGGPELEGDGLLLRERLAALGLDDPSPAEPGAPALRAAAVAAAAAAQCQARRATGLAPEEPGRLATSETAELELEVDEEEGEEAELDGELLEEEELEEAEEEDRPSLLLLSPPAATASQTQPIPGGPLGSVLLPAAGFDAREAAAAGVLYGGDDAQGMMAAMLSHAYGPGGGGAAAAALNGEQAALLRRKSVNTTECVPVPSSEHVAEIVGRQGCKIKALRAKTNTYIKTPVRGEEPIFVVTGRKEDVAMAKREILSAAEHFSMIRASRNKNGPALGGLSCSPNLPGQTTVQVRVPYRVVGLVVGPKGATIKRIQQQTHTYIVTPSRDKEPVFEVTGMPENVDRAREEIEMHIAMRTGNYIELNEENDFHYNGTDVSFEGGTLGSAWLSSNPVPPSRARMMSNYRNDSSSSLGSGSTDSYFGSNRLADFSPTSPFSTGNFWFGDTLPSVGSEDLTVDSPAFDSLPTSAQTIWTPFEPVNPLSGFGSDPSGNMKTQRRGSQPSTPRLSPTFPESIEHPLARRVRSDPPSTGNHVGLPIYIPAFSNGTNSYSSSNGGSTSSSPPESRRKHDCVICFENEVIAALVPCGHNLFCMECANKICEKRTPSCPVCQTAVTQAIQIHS
UniProt Q07243: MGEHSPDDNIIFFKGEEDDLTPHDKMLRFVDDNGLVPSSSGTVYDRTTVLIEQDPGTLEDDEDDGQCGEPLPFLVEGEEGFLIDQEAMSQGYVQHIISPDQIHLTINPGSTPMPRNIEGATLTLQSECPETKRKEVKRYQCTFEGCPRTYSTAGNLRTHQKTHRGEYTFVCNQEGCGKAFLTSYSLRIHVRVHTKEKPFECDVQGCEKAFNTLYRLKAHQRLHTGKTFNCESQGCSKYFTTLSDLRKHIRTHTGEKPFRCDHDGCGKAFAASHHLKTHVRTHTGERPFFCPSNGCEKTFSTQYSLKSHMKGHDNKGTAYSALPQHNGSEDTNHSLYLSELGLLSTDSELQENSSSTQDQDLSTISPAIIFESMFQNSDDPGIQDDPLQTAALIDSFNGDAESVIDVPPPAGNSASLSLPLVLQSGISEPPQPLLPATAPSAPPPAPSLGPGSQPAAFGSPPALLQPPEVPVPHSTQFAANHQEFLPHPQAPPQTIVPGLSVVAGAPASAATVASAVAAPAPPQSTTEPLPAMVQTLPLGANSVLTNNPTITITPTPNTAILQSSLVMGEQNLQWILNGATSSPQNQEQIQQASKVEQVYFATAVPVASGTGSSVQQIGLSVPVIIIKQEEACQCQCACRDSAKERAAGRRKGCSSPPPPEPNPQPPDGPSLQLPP

Each target was assayed with CN[C@@H]1C[C@H]2O[C@@](C)([C@@H]1OC)n1c3ccccc3c3c4c(c5c6ccccc6n2c5c31)C(=O)NC4 [staurosporine] (assay: log2 fold change of tryptic peptide abundance, ligand vs vehicle (limited proteolysis) (log2 ratio); higher = more trypsin-susceptible (destabilized)). Conditions: ligand concentration: 20 uM; sample: mouse liver crude lysate; replicate design: treated separately.

**Q.** Which log2 fold change does the source give for “UniProt Q07968 (peptide sequence: NGDIVSSAAR, peptide start residue: 533)” here?
**A.** 0.505

**Q.** For “UniProt Q0GUM3 (peptide sequence: TKIDSDLWNEK, peptide start residue: 182)”, which log2 fold change is on record?
**A.** 0.312

**Q.** For “UniProt Q3U3C9 (peptide sequence: SFRPYHTAEDLR, peptide start residue: 221)”, which log2 fold change is on record?
**A.** -0.6

**Q.** For “UniProt Q3TEI4 (peptide sequence: SSPHPQLLGSQTHHL, peptide start residue: 1009)”, which log2 fold change is on record?
**A.** -0.523

**Q.** Which log2 fold change does the source give for “UniProt Q3TGW2 (peptide sequence: SIPRDPSDLSHNR, peptide start residue: 10)” here?
**A.** -0.249

**Q.** How did the log2 fold change turn out when “UniProt Q1W617 (peptide sequence: IKLGEEQLK, peptide start residue: 1454)” was run?
**A.** 0.124

**Q.** Which log2 fold change does the source give for “UniProt Q05186 (peptide sequence: HWILPQDYDHAQAEAR, peptide start residue: 265)” here?
**A.** -0.0939

**Q.** “UniProt Q0VEJ0 (peptide sequence: QLIHQQLSK, peptide start residue: 13)” was tested. Which log2 fold change did it give?
**A.** 0.745

**Q.** Which log2 fold change does the source give for “UniProt Q05A36 (peptide sequence: TPVRGEEPIFVVTGR, peptide start residue: 261)” here?
**A.** -0.287

**Q.** With “UniProt Q09XV5 (peptide sequence: EDEESSIQKR, peptide start residue: 567)” as the target, how does the log2 fold change read?
**A.** 0.976

**Q.** Which log2 fold change does the source give for “UniProt Q07243 (peptide sequence: QEEACQCQCACRDSAK, peptide start residue: 628)” here?
**A.** 0.957
